# Among all 320,000 compounds or so, about 2,100 (0.66%) were called active. The inconclusive results got no clear call from the source; some entries with a clear call stand among them for comparison. Calls follow the shape of the dose curve; as a rule, active = well fitted inhibition curve with a large enough effect in the signal ratio, with a control signal flat (not every such curve was filed as active); inconclusive = small, poorly fitted or top-dose-only effect, or effect the other way, or a change in a side signal; inactive = flat fitted curve, though single readings scatter; the % refers to the signal ratio. Potencies beside an inconclusive call are fits to weak or partial responses and may not hold up.
# Assay: qHTS Assay for Lipid Storage Modulators in Drosophila S3 Cells
# Details: BODIPY lipid droplet fluorescence, 18-24 h, cells fed with added oleic acid; lipid storage change, negative = inhibition: at 46.1 µM (top of the series) unless noted
# Summary of the method: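 Drosophila S3 cells loaded with oleic acid (400 uM, as added) and compounds at several concentrations; lipid droplets imaged by 488-nm laser-scanning cytometry, 500–530 nm intensity and object ratio to cell channel. Percent activity normalized to 20 uM Triacsin C.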
# % is scaled to controls: 0 for no effect and ±100 for the full control effect; potency is read from the fitted curve at half-maximal effect.
Compound,"lipid storage change, negative = inhibition",Potency
CCOc1ccc(-n2c(O)c(C=Nc3ccc(NC(C)=O)cc3)c(=O)[nH]c2=O)cc1,inconclusive: 15.8%,
COc1ccc(Cc2c(O)[nH]c(=S)[nH]c2=O)cc1,inconclusive: 25%,
CC(=O)Nc1ccccc1C(=O)OCC(=O)Nc1ncccn1,inconclusive: 6.87%,
Cc1cc(C=C2C(=O)N(C)C(=S)N(C)C2=O)c(C)n1C1CCCCC1,inconclusive: -38.7% [at 0.0737 µM],
Cc1ccc(OP(N)(=O)Oc2ccc(C)cc2)cc1,inconclusive: -53.7%,
CCOC(=O)Cn1c(=O)oc2cc(S(=O)(=O)NC(C)c3ccccc3)ccc21 (configuration not stated),,"inconclusive: 0.0046 µM [falling, full curve, poor fit]"
Cc1nn(-c2ccccc2)c2c1C(c1ccc3c(c1)OCO3)SCC(=O)N2 (configuration not stated),inconclusive: -12.4%,
COc1ccc(-c2nn(CCC#N)cc2C(=O)Nc2ccccc2)cc1OC,inconclusive: -36.3%,
COc1ccc2c(c1OC)CN1CCc3cc4c(cc3[C@H]1C2)OCO4,,"inconclusive: 0.58 µM [falling, single point]"
O=C(Cn1cc(C(=O)c2ccccc2)c2ccccc21)NCc1ccco1,inconclusive: -7.36%,
COC(=O)c1ccccc1N=Cc1c(O)[nH]c(=S)[nH]c1=O,inconclusive: -61%,
CCCCn1c(O)c(C(C)=NCCCN(C)C)c(=O)[nH]c1=O,,"inconclusive: 20.6 µM [falling, single point]"
CCCCC(=O)N/N=C/c1c(O)n(-c2ccccc2)c(=O)[nH]c1=O,inconclusive: 13.8%,
N#CC(C#N)=Cc1cccnc1,,"inconclusive: 4.11 µM [falling, single point]"
Cc1[nH]c2ccc(OC(=O)N3CCOCC3)cc2c1C(=O)OC(C)C,,"inconclusive: 3.66 µM [activator, partial curve]"
CN(C)c1ccc(/C=C2\C(=O)NC(=O)N(Cc3ccc(F)cc3)C2=O)cc1,inconclusive: 1.17%,
CCCCn1c(=O)c(C(=O)NCc2ccccc2OC)c(O)c2ccccc21,,"inconclusive: 0.0046 µM [activator, full curve, poor fit]"
CN1C2CCC1C(COC(=O)c1ccccc1)C(O)C2 (configuration not stated),inconclusive: 0.0466%,
CCC[N+]12CCC(CC1)C(=C(c1ccccc1)c1ccccc1)C2,inconclusive: -29.8%,
CC(C)CC(NS(=O)(=O)c1ccc2c(c1)oc(=O)n2C)C(=O)NCc1cccnc1 (configuration not stated),,active: 1.64 µM
CCc1ccc(N2C(=O)NC(=O)/C(=C/c3cccn3CCOc3ccc(C)cc3)C2=O)cc1,,"inconclusive: 18.4 µM [falling, single point]"
O=C(Cn1ncn2c(cc3cc(F)ccc32)c1=O)N1CCC2(CC1)OCCO2,inconclusive: 7.05%,
CC1CC(NC(=O)C2C3CCC(O3)C2C(=O)O)CC(C)(C)C1 (configuration not stated),,"inconclusive: 29.1 µM [cytotoxic, single point]"
COc1ccc(C(O)P(=O)(Oc2ccccc2)Oc2ccccc2)cc1 (configuration not stated),inconclusive: 14.1%,
O=S(=O)(NC1CCCCCCC1)OCC(Cl)(Cl)Cl,,"inconclusive: 20.6 µM [falling, single point]"
COc1ccc(CCNCc2cccn2C)cc1,inconclusive: -24.9%,

# Part of the list above, with tabs:
Compound	lipid storage change, negative = inhibition	Potency
CCC[N+]12CCC(CC1)C(=C(c1ccccc1)c1ccccc1)C2	inconclusive: -29.8%	
CC(C)CC(NS(=O)(=O)c1ccc2c(c1)oc(=O)n2C)C(=O)NCc1cccnc1 (configuration not stated)		active: 1.64 µM
CCc1ccc(N2C(=O)NC(=O)/C(=C/c3cccn3CCOc3ccc(C)cc3)C2=O)cc1		inconclusive: 18.4 µM [falling, single point]
O=C(Cn1ncn2c(cc3cc(F)ccc32)c1=O)N1CCC2(CC1)OCCO2	inconclusive: 7.05%	

# Remaining list, next part.

Compound,"lipid storage change, negative = inhibition",Potency
Fc1ccc(Cn2nnnc2CN2CCC(n3nnc4cc(C(F)(F)F)ccc43)CC2)cc1,inconclusive: 15.2%,
CCN(CC)S(=O)(=O)N1CCC(C(=O)N2CCC3(CC2)OCCO3)CC1,inconclusive: -0.19%,
CCOC(=O)C1(c2ccccc2)CCN(CCC(=O)Nc2ccc(F)cc2)CC1,inconclusive: -33.9%,
COc1ccccc1CCNC1C2CC3CC(C2)CC1C3 (configuration not stated),,"inconclusive: 0.0517 µM [falling, full curve]"
O=C(CCn1c(=O)oc2ccccc21)NCCCN1CCOCC1,,"inconclusive: 0.58 µM [falling, partial curve, poor fit]"
O=C(Nc1ccccc1)N1CC2CC(C1)c1cccc(=O)n1C2 (configuration not stated),inconclusive: -31.5%,
C#CCN1CCN(c2cccc(C(F)(F)F)c2)CC1,,"inconclusive: 0.651 µM [falling, full curve, poor fit]"
CC(=O)Nc1nnc(CCN(CCc2nnc(NC(C)=O)s2)[N+](=O)[O-])s1,inconclusive: 1.65%,
CN1C(=O)CC(c2ccccc2)Nc2ccccc21 (configuration not stated),inconclusive: 14.1%,
CN(C)c1ccc(C=C2C(=O)NC(=S)NC2=O)cc1[N+](=O)[O-],inconclusive: 19.9%,
C/C(=N\NC(N)=O)c1c(O)n(C)c(=O)n(C)c1=O,inconclusive: -5.28%,
COc1ccc2c(c1)c(C(=O)CN1CCN(C)CC1)c(C)n2Cc1ccccc1,inconclusive: -12.6%,
O=C1NC(=O)C(C/C=C/c2ccccc2)C(=O)N1,,"inconclusive: 18.4 µM [falling, single point]"
Cc1ccc(C(=O)Nc2ccc(-n3ccnc3P(=O)(O)c3ccccc3)cc2)cc1,inconclusive: -15.7%,
COc1nc2ccccc2c(=O)n1-c1ccc(Cl)cc1,,"inconclusive: 6.51 µM [activator, partial curve]"
N[C@@]1(C(=O)O)CC[C@@H](C(=O)O)C1,inconclusive: -23.2%,
CN1C(=O)/C(=C\c2ccc(N3CCCCCC3)cc2)C(=O)NC1=S,inactive: -13.9%,
CCC(=NCc1ccco1)c1c(O)n(-c2ccc(Cl)cc2)c(=O)[nH]c1=O,inconclusive: -23.1%,
O=C(Nc1ccc(Cl)cc1)Nc1nccs1,inconclusive: -27.2%,
CN1CC(C(=O)c2ccc(Cl)cc2)C(c2ccccc2F)C1 (configuration not stated),,"inconclusive: 6.51 µM [cytotoxic, single point]"
COC(=O)C1=C(c2ccc(F)cc2F)C[C@@H]2CC[C@H]1N2C(=O)NCCOc1ccccc1Cl,,"inconclusive: 20.6 µM [falling, single point]"
O=C(N/N=C/c1c(O)n(CCc2ccc(F)cc2)c(=O)[nH]c1=O)c1ccccc1,inconclusive: 10.2%,
CC1(C)Cc2c(sc3c2C(=O)NC(c2cccnc2)N3)CO1 (configuration not stated),inconclusive: 44.5%,
CN(C)c1ccc(P(=S)(N(C)C)N(C)C)cc1,inconclusive: 35.1%,
Cc1ccc(CNC2=NCCS2)cc1,inconclusive: -44.7%,
CC1CN=C(Nc2ccccc2)S1 (configuration not stated),inconclusive: -21%,

Compound,"lipid storage change, negative = inhibition",Potency
O=C(Cn1c(=O)n(CC2CS2)c2ccccc21)N1CCCCCC1 (configuration not stated),inactive: 1.02%,
CCC1(C(=O)c2ccccc2)C2c3ccccc3OC(=O)C21C(C)=O (configuration not stated),inconclusive: -34.1%,
CCCCC/C(=N\O)c1c[nH]c2ccccc12,inconclusive: -23.5%,
CCCN1CCC[C@H](c2cccc(O)c2)C1,inconclusive: -1.68%,
O=C(Nc1nccs1)C(Cl)(Cl)Cl,inconclusive: -114%,
O=C1NC(=O)N(c2ccc3c(c2)OCO3)C(=O)/C1=C/c1ccc(N2CCCC2)o1,,"inconclusive: 10.3 µM [falling, partial curve, poor fit]"
CCN(CC)CCN=C(C)c1c(O)n(-c2ccccc2OC)c(=O)[nH]c1=O,inconclusive: -10.2%,
CC(C(=O)O)N(C(=O)c1ccccc1)c1ccc(F)c(Cl)c1 (configuration not stated),,"inconclusive: 0.0046 µM [cytotoxic, full curve, poor fit]"
CCC1CCCCN1P(=O)(c1ccc(C)o1)C(C)(C)C (configuration not stated),inconclusive: 8.38%,
O=C(c1ccncc1)C12CN3CN(CN(C3)C1)C2,inconclusive: 3.95%,
O=C(Cc1ccccc1)Oc1ccc([N+](=O)[O-])cc1,,"inconclusive: 0.164 µM [activator, full curve, poor fit]"
CC1CCN(CC(=O)c2ccc3c(c2)OCCO3)CC1,inconclusive: 64.5%,
O=C1NC(=O)N(c2ccccc2F)C(=O)/C1=C/c1ccc(Sc2nc3ccccc3[nH]2)o1,,"inconclusive: 29.1 µM [falling, single point]"
Cc1ccc(-n2c(O)c(/C=N/N3CCCCC3c3cccnc3)c(=O)[nH]c2=S)cc1 (configuration not stated),inconclusive: 11.7%,
O=c1[nH]c(=O)n(-c2ccc(Br)cc2)c(O)c1C=NC(CO)(CO)CO,inactive: -18.1%,
CC1(C)C(C(=O)N2CCN(C(=O)c3ccccc3)CC2)C1(C)C,inconclusive: -67.1%,
Cc1ccccc1NC(=O)NCCN1CC1,,"inconclusive: 4.61 µM [rising, partial curve, poor fit]"
Cc1c(N=Nc2c(O)n(Cc3ccccc3)c(=O)[nH]c2=O)c(=O)n(-c2ccccc2)n1C,inconclusive: -26.8%,
Cc1ccc(N2C(=O)NC(=O)/C(=C\c3cc(C)n(-c4cc(C(=O)O)cc(C(=O)O)c4)c3C)C2=O)cc1,inconclusive: -44.3%,
CCCCCC(=O)N[C@@H](c1ccccc1)[C@@H](O)C(=O)O[C@H]1C[C@@]2(O)[C@@H](OC(=O)c3ccccc3)C3[C@](C)(C(=O)[C@H](O)C(=C1C)C2(C)C)[C@@H](OC1OCC(O)C(O)C1O)C[C@H]1OC[C@@]31OC(C)=O (some centres not stated),,"inconclusive: 0.461 µM [falling, partial curve, poor fit]"
CC(C(N)=O)N1CC(c2ccccc2)CC1=O (configuration not stated),inconclusive: -30.6%,
COc1cc2c(cc1OC)C(C(=O)NC(C)C)C1CCCCN1C2=O (configuration not stated),inconclusive: 15.6%,
CCOC(=O)c1c(/N=C/c2c(O)n(-c3ccc(F)cc3)c(=S)[nH]c2=O)sc2c1CCCC2,,"inconclusive: 0.092 µM [falling, full curve, poor fit]"
CCOC(=O)N(C)c1ccc(C(O)(C(=O)OC)C(F)(F)F)cc1 (configuration not stated),inactive: 11.7%,
Cc1ccc(N=C(N(C)C)P(=O)(N(C)C)N(C)C)cc1,inconclusive: -25.2%,
